This note sets out measurements from PMC10931150.

The chains behind the UniProt entries cited, without tags or fusion partners. Where a name states a change or a piece, a line headed by the entry shows the natural chain unless it says otherwise. A line that says so, or that is headed by a name, gives the form on record, which may keep a tag or linker. Residues count along the entry.
nuclear myosin 1 (human (endogenous in HeLa)) (O00159, form named): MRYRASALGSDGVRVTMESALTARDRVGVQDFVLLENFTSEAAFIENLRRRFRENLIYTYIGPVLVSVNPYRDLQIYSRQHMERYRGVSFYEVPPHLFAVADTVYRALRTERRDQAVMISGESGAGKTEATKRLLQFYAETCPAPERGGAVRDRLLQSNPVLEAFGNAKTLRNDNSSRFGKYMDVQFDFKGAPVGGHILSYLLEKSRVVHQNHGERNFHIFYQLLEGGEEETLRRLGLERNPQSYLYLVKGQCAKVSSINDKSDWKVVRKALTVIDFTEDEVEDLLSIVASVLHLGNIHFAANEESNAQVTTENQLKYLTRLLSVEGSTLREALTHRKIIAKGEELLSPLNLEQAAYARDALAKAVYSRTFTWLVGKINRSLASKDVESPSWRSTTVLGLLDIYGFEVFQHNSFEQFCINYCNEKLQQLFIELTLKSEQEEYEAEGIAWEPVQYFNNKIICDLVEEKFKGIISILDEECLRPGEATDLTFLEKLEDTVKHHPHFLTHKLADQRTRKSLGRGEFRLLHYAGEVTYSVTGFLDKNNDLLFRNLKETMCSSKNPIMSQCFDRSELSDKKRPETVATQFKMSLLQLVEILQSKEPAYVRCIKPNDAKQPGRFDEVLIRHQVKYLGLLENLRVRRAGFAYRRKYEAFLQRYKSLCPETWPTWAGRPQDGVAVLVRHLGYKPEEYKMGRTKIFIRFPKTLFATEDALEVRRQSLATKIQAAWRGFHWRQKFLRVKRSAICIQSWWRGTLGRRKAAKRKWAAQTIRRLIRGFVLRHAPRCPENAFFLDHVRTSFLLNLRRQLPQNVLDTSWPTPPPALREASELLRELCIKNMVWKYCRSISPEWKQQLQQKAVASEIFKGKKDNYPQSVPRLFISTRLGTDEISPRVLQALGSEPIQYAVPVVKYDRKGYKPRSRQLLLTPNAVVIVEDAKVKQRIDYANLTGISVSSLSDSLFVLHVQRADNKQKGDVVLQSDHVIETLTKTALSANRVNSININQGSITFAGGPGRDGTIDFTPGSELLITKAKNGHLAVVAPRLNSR
mutant Flag-Strep-tagged NM1 (K908A) (O00159, form named): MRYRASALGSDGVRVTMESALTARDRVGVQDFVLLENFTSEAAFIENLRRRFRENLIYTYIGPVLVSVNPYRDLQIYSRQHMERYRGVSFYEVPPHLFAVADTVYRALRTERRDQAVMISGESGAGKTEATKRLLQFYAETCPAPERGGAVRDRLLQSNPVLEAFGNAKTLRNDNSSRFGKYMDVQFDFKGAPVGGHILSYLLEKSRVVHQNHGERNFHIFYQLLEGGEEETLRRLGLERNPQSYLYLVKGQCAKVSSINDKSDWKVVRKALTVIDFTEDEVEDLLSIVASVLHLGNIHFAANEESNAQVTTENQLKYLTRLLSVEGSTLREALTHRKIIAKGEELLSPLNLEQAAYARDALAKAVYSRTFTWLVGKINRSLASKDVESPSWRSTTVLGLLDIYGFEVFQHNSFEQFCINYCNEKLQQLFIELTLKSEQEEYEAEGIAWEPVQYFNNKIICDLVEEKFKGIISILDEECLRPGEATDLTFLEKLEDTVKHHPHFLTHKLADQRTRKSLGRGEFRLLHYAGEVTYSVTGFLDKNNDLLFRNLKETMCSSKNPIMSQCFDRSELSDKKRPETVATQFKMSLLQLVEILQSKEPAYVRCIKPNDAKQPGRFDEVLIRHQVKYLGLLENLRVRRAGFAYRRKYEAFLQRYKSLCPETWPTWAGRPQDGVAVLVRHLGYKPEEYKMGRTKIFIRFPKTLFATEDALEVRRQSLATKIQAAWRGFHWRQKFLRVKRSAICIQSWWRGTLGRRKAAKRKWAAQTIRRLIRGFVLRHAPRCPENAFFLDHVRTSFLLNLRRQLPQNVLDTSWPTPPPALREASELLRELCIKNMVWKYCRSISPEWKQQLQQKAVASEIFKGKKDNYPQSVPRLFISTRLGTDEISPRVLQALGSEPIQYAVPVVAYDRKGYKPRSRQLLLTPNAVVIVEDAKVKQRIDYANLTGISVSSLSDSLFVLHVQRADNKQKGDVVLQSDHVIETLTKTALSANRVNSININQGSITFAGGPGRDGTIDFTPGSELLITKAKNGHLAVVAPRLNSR
lamin A (P02545, residues 1-646): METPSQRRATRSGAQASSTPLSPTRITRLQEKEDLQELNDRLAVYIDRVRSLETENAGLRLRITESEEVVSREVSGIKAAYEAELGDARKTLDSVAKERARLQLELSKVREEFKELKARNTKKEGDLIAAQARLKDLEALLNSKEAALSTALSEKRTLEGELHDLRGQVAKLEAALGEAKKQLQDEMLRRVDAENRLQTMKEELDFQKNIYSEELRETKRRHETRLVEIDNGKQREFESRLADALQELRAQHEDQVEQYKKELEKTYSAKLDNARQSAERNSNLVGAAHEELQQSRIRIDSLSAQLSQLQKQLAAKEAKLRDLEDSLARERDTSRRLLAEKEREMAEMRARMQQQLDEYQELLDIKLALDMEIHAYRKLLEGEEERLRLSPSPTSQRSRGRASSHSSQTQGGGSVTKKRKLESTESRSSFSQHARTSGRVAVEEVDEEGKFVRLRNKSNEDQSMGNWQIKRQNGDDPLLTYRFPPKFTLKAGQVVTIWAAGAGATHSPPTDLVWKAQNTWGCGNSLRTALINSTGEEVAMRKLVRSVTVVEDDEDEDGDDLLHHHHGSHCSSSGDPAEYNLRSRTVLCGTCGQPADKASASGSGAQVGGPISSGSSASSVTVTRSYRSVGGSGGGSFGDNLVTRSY
lamin C (P02545-2, form named): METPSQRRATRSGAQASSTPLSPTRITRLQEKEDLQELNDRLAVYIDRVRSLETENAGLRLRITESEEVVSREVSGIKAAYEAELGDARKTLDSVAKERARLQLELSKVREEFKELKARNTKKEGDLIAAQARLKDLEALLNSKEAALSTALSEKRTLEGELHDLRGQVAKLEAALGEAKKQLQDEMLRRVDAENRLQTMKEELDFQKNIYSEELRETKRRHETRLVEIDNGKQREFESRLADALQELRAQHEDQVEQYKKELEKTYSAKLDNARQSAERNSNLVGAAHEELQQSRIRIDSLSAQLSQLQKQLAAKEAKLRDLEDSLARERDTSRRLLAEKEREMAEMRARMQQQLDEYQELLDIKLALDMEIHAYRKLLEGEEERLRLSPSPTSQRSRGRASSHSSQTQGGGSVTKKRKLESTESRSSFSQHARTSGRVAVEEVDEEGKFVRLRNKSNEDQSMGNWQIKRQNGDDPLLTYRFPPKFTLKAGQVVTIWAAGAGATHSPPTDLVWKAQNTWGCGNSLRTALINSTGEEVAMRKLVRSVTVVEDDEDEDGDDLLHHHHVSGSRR

No constants are given. Whether binding was seen depends on the method and setting. Binding seen in cells or lysates may run through a third protein. Some entries that bind do so weakly or less than the wild type.

Experiment [1] addresses wild type Flag-Strep-tagged NM1 (UniProt O00159). Kind of experiment: pull-down; pull-down through the Strep tag of WT-NM1 or mut-NM1 from lysates of transfected HeLa cells (RIPA buffer, sonicated); two-dimensional electrophoresis and immunoblot with lamin A/C antibody. A general note: Immunoblotting shows a protein as a band on a membrane.
Experiment [2] addresses nuclear myosin 1 (human (endogenous in HeLa)) (UniProt O00159). Kind of experiment: co-IP; anti-NM1 antibody on magnetic protein G beads, HeLa nuclear extract in 1x RIPA buffer, 2 h at 4 °C; SDS-PAGE and immunoblot with anti-lamin A/C.
The target of experiment [3] is mutant Flag-Strep-tagged NM1 (K908A) (UniProt O00159). Kind of experiment: pull-down; pull-down through the Strep tag of WT-NM1 or mut-NM1 from lysates of transfected HeLa cells (RIPA buffer, sonicated); two-dimensional electrophoresis and immunoblot with lamin A/C antibody.

Take lamin A (from UniProt P02545 1-646): the binding entry in experiment [1] and in experiment [2] was “binds” throughout.
Consider lamin C (from UniProt P02545-2 1-572), for which the binding result in experiment [3], in experiment [1] and in experiment [2] was “binds” each time.
